Values from PubChem BioAssay AID652243 (Drosophila RNAi Screening Center, 2013).
Screen: 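Knock-downs that decrease or increase androgen receptor reporter signal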 (primary screen). Cell system: Drosophila S2R+ cells. Knock-down reagent: long dsRNA against Drosophila genes. Timing: 72 h (48 h, then 24 h hormone). Treatment: synthetic androgen R1881 at 10 nM for 24 h. Detection: 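Per-well raw luminescence of the androgen-driven firefly reporter and of the Renilla control, two replicates each, without normalisation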. Scale: firefly reporter light: higher = more light from androgen-responsive reporter; Renilla control light: higher = more constitutive control signal (cell number, transfection). Rule for the call: 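Hit when the log firefly-to-Renilla ratio dropped or increased by a fixed fold versus the mean of GFP or LacZ controls across duplicate plates; lowering cut given as 1.5 and as 3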. Meaning of the calls: active = hit: reporter lowered or raised; inactive = no hit.
In all, the deposit lists about 24,000 reagents; shown is an unselected part of those with a known target gene and a result. Of all reagents, 246 (1%) were called active. 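Plates not normalised; calls are printed but the firefly/Renilla ratio behind them is not deposited; fold cut for lowering reported inconsistently.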 Raw values vary from plate to plate and are shown uncorrected. Reagent sequences are not shown. Not given: the amount of reagent.

no.	target	DRSC id	firefly reporter light, replicate 1	firefly reporter light, replicate 2	Renilla control light, replicate 1	Renilla control light, replicate 2	Call
1	Nca	DRSC11233	2.59e5	2.68e5	2.51e6	2.43e6	inactive
2	CG9231	DRSC11054	51473	64273	3.99e5	3.53e5	inactive
3	ninaG	DRSC16102	1.82e5	1.29e5	2.02e6	1.77e6	inactive
4	PpD3	DRSC16796	95475	1.25e5	2.15e6	2.18e6	inactive
5	PpD3	DRSC36658					inactive
6	PpD3	DRSC36659					inactive
7	CG8738	DRSC07256	4.21e5	3.64e5	2.02e6	1.53e6	inactive
8	CG7650	DRSC10898	3.68e5	7.48e5	1.05e6	2.00e6	inactive
9	CG7650	DRSC29711	4.09e5	3.24e5	1.14e6	1.16e6	inactive
10	CG33474	DRSC05218	1.09e5	92141	3.06e5	66740	inactive

Ordered by “firefly reporter light, replicate 1” (high to low): 2 of the entries above.
target	DRSC id	firefly reporter light, replicate 1	firefly reporter light, replicate 2	Renilla control light, replicate 1	Renilla control light, replicate 2	Call
Nca	DRSC11233	2.59e5	2.68e5	2.51e6	2.43e6	inactive
CG9231	DRSC11054	51473	64273	3.99e5	3.53e5	inactive

The listing continues.
no.	target	DRSC id	firefly reporter light, replicate 1	firefly reporter light, replicate 2	Renilla control light, replicate 1	Renilla control light, replicate 2	Call
11	cerv	DRSC19681	3.17e5	3.19e5	1.67e6	2.57e6	inactive
12	cerv	DRSC25320	7.41e5	7.21e5	7.59e5	7.49e5	inactive
13	CG34375	DRSC14684	1.99e5	2.02e5	3.01e6	2.77e6	inactive
14	CG34375	DRSC14685	76177	86473	1.98e6	2.23e6	inactive
15	CG34375	DRSC24412	1.18e6	9.20e5	7.56e5	7.75e5	inactive
16	Ccs	DRSC06692	2.85e5	2.20e5	1.42e6	1.34e6	inactive
17	SelT	DRSC02732	4.72e5	8.14e5	1.49e6	1.49e6	inactive
18	SelT	DRSC26033	3.23e5	2.25e5	8.92e5	7.02e5	inactive
19	CG32639	DRSC18972	3.14e5	2.58e5	3.51e5	2.43e5	inactive
20	Pex14	DRSC11754	1.80e5	1.61e5	2.45e6	2.43e6	inactive
21	Pex14	DRSC28339	3.02e5	4.84e5	7.96e5	1.59e6	inactive
22	Vm34Ca	DRSC03475	1.64e5	1.79e5	1.16e6	1.06e6	inactive
23	Vm34Ca	DRSC25260	2.67e5	2.41e5	1.34e6	6.91e5	inactive
24	CheB53b	DRSC05613	1.03e5	1.94e5	2.85e5	4.41e5	inactive
25	CheB53b	DRSC28557	3.42e5	6.42e5	1.04e6	1.69e6	inactive
